# From PubChem BioAssay AID2685 (National Center for Advancing Translational Sciences (NCATS), 2010)
# The campaign covered roughly 320,000 compounds. About 2,100 (0.66%) were called active. Inconclusive results, whose numbers are uncertain, are shown with a selection of clear calls. Calls follow the shape of the dose curve; as a rule, active = well fitted inhibition curve with a large enough effect in the signal ratio, with a control signal flat (not every such curve was filed as active); inconclusive = small, poorly fitted or top-dose-only effect, or effect the other way, or a change in a side signal; inactive = flat fitted curve, though single readings scatter; the % refers to the signal ratio. Potencies of inconclusive entries are doubtful fits and often do not repeat.
# Assay: qHTS Assay for Lipid Storage Modulators in Drosophila S3 Cells
# Conditions: BODIPY lipid droplet fluorescence, 18-24 h, cells fed with added oleic acid; lipid storage change, negative = inhibition: at 46.1 µM (top of the series) unless noted
# How it was run: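 Drosophila S3 cells got compounds at several concentrations plus oleic acid (400 uM solution). Laser-scanning cytometry with 488 nm excitation read lipid droplets at 500-530 nm and cells at 575-640 nm. Percent activity was relative to 20 uM Triacsin C.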
# % is scaled to controls: 0 for no effect and ±100 for the full control effect; potency is read from the fitted curve at half-maximal effect.
Compound,"lipid storage change, negative = inhibition",Potency
Cc1noc(C)c1S(=O)(=O)N1CCC(C(=O)NC2CCN(Cc3ccccc3)CC2)CC1,inconclusive: 42.6%,
CC(=O)c1cccc(NC(=O)c2cc(-n3cnnc3)ccc2Cl)c1,inconclusive: 0.855%,
O=C(Cc1ccccc1)NC(=S)Nc1ccc(N2CCCCC2)cc1,,"inconclusive: 0.231 µM [falling, partial curve]"
CC(C)(C)c1cc(C(=O)N/N=C/c2ccncc2)n[nH]1,inconclusive: 48%,
CCN(CC)c1ccc(/C=N/Nc2ccccc2)c(O)c1,inactive,
O=C(CN1C(=O)C2C3CCC(C3)C2C1=O)OCC(=O)c1ccc(Br)cc1 (stereo not given),,"inconclusive: 23.1 µM [activator, single point]"
CCNS(=O)(=O)c1c(C)cc(N2CCCC2=O)cc1C,,"inconclusive: 0.116 µM [falling, full curve, poor fit]"
CCOC(=O)C1(Cc2ccccc2)CCN(Cc2ccc(C)s2)CC1,inconclusive: -27.5%,
CCOC(=O)C1(Cc2ccccc2Cl)CCN(C(=O)c2cc(C)on2)CC1,inconclusive: -37.7%,
COc1cc(C(=O)N2c3ccccc3CCC2C)cc(OC)c1OC (stereo not given),,"inconclusive: 0.82 µM [activator, partial curve]"
NCCCC[C@H]1NC(=O)[C@H](CCC(=O)O)NC(=O)c2cc([N+](=O)[O-])cc(I)c2OCC[C@@H](C(N)=O)NC1=O,inconclusive: 4.86%,
COC(=O)C1=C(CSc2nc3ccccc3s2)NC(=O)NC1c1ccc(F)cc1 (stereo not given),,"inconclusive: 8.2 µM [activator, partial curve]"
O=C(O)c1ccccc1CSC1=NCCS1,,"inconclusive: 18.4 µM [falling, partial curve, poor fit]"
CCCC(=O)Nc1c(-c2cccc(C)c2)c(=O)c2ccccc2n1C,inconclusive: -21%,
O=C1C(Cl)=C(NCC2CCCO2)C(=O)N1c1cccc(Cl)c1Cl (stereo not given),inconclusive: -83.2%,
Cc1ccc(CN2CCc3c(OCC(=O)Nc4cccc(C)c4C)cccc3C2=O)cc1,,"inconclusive: 1.03 µM [falling, full curve]"
COC(=O)Cn1c(=NC(=O)c2ccc(S(=O)(=O)N3CCOCC3)cc2)sc2cc(S(N)(=O)=O)ccc21,inconclusive: -29%,
Cn1cc(/C=C(\C#N)C(=O)Nc2ccccc2O)c2ccccc21,inconclusive: -27%,
CN(C)S(=O)(=O)NCCNC(=O)c1cc(OCC(F)(F)F)ccc1OCC(F)(F)F,inconclusive: 7.66%,
CCc1nnc(NC(=O)c2ccncc2)s1,inconclusive: -34.4%,
O=C(Nc1ccc(F)cc1)c1cccc2c1C(=O)N(CC1CCCO1)C2 (stereo not given),inconclusive: 2.53%,
CN1CCN(C(=O)c2ccccc2Nc2ccc(SC(F)F)cc2)CC1,inconclusive: -14.1%,
COc1cccc2sc(N(C)c3ccccc3)nc12,inconclusive: -2.6%,
Cc1ccsc1-c1n[nH]c(=S)n1C1CCCCC1,inconclusive: 2.06%,
COc1ccc(N=N/C(=C\O)C(=O)c2cccs2)cc1,,"inconclusive: 0.103 µM [falling, full curve, poor fit]"

# Laid out differently: entries from further up.
Compound	lipid storage change, negative = inhibition	Potency
Cc1noc(C)c1S(=O)(=O)N1CCC(C(=O)NC2CCN(Cc3ccccc3)CC2)CC1	inconclusive: 42.6%	
CC(=O)c1cccc(NC(=O)c2cc(-n3cnnc3)ccc2Cl)c1	inconclusive: 0.855%	
O=C(Cc1ccccc1)NC(=S)Nc1ccc(N2CCCCC2)cc1		inconclusive: 0.231 µM [falling, partial curve]

# (further entries)

Compound,"lipid storage change, negative = inhibition",Potency
O=C(N/N=C/c1cccc(O)c1)c1ccc(-n2cnnn2)cc1,inconclusive,
Oc1c(C(c2ccco2)N2CCN(C(c3ccccc3)c3ccccc3)CC2)sc2ncnn12 (stereo not given),inconclusive: -23.7%,
Cc1ccc(NC(=O)OCCN2CCN(Cc3ccccc3)CCC2=O)cc1C,inconclusive: 2.49%,
Cc1ccc(NC(=O)CSc2nnc(-c3cccnc3)n2CCN2CCCCC2)cc1,inconclusive: 19.7%,
CCN(C(=O)COC(=O)C1=COCCO1)c1ccccc1,,"inconclusive: 29.1 µM [activator, single point]"
CCOC(=O)C1(CCc2ccccc2)CCN(C(=O)[C@@H]2C[C@@H](C)NC(=S)N2)CC1,inconclusive: 5.01%,
COc1ccc(CNc2ccc(Br)cc2)cc1,inconclusive: -15.5%,
N#CC1=C(N)NC(SCc2ccc(F)cc2)=C(C#N)C12CCCCC2,,"inconclusive: 0.231 µM [rising, full curve]"
COc1ccc(NC(=O)NC(C)(C(F)(F)F)C(F)(F)F)cc1,inconclusive: 6.3%,
COc1ccc(S(=O)(=O)NNC(=O)C2CC(c3cccnc3)=NO2)cc1 (stereo not given),inconclusive: 3.28%,
COc1ccccc1NC(=O)c1cc2ccccc2o/c1=N\O,inconclusive: 4.35%,
CCN(CC)C(=O)COc1ccc(/C(C)=N/NC(=O)c2ccccc2O)cc1,inconclusive: 16.1%,
O=C(C1CCCN1S(=O)(=O)c1ccc(Cl)cc1)N1CCOCC1 (stereo not given),inconclusive: -71.7%,
Cc1ccc2occ(C(c3nnnn3C3CCCC3)N3CCN(C(=O)c4ccco4)CC3)c(=O)c2c1 (stereo not given),inconclusive: 15.4%,
CC1=C(C(=O)N2CCN(c3cc(C)ccc3C)CC2)C2(CCCCC2)OC1=O,inconclusive: 20.9%,
CCCC[C@]12Cc3cc(OC)c(OC)cc3C(O1)c1c(cc(-c3ccccc3)oc1=O)O2,inconclusive: 26.7% [at 9.22 µM],
CCC/C(C)=C/c1ccc(CC)cn1,,"inconclusive: 6.51 µM [falling, single point]"
CC1CCN(C(=O)CSc2nc(N)c3c4c(sc3n2)CN(C)CC4)CC1,inconclusive: 30.3%,
CCOc1ccc(N2CC(C(=O)Nc3ccccc3C(=O)N3CCOCC3)CC2=O)cc1 (stereo not given),inconclusive: 52.7%,
COc1ccc(OC)c(C(=O)CCCC(=O)c2cc(OC)ccc2OC)c1,,"inconclusive: 16.4 µM [falling, partial curve]"
COc1ccc(-c2noc(CN(C)C(=O)c3ccc4c(c3)OCO4)n2)cc1,inconclusive: 213%,
NC(=O)C1=C[C@@H](c2coc3ccccc3c2=O)C[C@@H](OCc2ccc(CO)cc2)O1,inactive,
COc1cnc(-c2ccccc2)nc1Oc1ccccc1C,,active: 5.17 µM
Cc1ccc(Cn2ccc(NC(=O)CCSc3nc(-c4ccco4)cc(C(F)(F)F)n3)n2)cc1,,"inconclusive: 16.4 µM [activator, partial curve]"
COCCCNC(=O)c1cn(C)c(=O)c2c1c1ccccc1n2C,,"inconclusive: 32.6 µM [activator, single point]"
